{"sequences": {"note": "Protein sequences, listed by entry. Tags and fused reporters are not part of them. Lines headed by an entry give the natural chain unless they say otherwise; changes in a name come on top.", "UniProt P22466": "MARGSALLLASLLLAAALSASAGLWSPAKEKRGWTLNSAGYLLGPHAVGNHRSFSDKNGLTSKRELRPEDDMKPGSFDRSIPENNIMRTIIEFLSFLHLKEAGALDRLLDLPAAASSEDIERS", "UniProt Q99988": "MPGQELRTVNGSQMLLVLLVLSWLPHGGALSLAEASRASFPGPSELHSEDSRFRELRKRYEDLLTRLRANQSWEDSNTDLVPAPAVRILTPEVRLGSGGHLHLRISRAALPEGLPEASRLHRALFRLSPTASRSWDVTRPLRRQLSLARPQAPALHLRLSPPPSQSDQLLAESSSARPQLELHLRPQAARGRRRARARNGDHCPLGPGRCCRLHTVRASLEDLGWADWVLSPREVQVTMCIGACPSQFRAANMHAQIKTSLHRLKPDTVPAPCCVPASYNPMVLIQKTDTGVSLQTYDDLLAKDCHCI", "UniProt Q92837": "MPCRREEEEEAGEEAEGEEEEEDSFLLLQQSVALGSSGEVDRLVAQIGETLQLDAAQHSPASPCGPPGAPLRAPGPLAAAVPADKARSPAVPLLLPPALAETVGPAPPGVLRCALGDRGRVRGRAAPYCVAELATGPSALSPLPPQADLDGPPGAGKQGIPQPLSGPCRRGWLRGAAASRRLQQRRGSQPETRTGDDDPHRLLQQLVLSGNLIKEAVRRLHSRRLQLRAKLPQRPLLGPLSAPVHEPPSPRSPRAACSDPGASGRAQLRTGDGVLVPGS", "UniProt Q9BVM4": "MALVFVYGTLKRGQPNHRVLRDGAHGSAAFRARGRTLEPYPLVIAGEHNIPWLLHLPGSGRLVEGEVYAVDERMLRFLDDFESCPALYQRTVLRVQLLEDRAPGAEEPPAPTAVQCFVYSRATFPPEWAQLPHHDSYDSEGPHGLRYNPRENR", "UniProt Q96CN9": "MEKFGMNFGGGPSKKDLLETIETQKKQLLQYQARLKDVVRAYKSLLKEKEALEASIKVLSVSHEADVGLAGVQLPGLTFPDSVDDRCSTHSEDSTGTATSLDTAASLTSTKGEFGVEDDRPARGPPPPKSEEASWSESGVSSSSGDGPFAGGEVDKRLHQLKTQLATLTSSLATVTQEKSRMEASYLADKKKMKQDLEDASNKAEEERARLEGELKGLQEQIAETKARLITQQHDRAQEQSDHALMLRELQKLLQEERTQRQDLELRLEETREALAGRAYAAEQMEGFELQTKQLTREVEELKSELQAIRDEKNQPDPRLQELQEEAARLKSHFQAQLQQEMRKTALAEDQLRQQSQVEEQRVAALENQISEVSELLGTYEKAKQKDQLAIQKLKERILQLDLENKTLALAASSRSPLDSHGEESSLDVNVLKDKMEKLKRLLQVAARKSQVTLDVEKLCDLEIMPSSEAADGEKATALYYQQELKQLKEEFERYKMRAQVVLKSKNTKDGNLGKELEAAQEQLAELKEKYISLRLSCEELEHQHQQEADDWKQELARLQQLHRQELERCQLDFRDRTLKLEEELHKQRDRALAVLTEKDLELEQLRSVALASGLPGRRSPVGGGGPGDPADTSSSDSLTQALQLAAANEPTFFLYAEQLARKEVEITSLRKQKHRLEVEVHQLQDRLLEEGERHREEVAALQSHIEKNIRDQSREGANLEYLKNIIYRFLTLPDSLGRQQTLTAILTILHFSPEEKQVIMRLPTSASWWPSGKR", "UniProt Q5JV73, whole entry, looked up": "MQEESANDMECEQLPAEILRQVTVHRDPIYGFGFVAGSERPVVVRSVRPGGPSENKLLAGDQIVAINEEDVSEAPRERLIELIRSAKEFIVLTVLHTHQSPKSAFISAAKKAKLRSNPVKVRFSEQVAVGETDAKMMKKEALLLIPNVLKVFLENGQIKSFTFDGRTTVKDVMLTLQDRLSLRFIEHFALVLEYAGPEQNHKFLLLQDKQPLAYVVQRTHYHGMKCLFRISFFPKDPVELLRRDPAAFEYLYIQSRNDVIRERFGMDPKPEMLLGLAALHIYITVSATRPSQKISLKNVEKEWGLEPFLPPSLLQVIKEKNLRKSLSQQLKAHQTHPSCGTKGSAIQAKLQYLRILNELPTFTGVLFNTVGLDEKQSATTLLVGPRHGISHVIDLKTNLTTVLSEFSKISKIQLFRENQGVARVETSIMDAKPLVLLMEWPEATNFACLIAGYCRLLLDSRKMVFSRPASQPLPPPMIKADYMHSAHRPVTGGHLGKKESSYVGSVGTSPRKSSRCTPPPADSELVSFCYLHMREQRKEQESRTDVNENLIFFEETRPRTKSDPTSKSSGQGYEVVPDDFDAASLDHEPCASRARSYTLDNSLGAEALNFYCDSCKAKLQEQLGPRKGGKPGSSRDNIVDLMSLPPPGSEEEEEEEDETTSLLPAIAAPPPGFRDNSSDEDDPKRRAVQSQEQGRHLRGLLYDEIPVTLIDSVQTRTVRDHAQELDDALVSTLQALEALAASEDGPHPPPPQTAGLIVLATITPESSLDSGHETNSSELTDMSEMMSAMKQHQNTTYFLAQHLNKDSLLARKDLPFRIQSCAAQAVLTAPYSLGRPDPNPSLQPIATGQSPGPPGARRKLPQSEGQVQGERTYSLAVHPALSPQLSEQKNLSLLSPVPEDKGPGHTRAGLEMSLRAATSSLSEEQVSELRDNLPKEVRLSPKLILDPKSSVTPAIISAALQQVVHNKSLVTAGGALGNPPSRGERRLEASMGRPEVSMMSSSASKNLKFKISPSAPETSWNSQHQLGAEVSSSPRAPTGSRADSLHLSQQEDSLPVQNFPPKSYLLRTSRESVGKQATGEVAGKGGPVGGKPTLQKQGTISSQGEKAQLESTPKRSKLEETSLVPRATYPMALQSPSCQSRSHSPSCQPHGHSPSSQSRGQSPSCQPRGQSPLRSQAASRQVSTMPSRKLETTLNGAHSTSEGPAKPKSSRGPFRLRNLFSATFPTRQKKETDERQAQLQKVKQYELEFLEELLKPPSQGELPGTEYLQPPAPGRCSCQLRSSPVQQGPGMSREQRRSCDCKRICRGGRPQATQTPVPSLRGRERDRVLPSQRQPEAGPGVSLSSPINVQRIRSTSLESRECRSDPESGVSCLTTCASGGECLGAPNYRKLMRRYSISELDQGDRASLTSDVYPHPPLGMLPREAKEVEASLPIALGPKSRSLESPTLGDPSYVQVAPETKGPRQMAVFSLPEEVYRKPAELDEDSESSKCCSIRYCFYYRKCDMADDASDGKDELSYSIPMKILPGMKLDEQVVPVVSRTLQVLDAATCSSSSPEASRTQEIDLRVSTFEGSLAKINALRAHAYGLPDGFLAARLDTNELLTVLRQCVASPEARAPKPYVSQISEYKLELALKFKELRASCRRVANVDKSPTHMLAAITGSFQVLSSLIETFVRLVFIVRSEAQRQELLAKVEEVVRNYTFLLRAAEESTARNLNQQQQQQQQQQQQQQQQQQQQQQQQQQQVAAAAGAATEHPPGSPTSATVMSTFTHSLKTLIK", "UniProt Q7L5L3": "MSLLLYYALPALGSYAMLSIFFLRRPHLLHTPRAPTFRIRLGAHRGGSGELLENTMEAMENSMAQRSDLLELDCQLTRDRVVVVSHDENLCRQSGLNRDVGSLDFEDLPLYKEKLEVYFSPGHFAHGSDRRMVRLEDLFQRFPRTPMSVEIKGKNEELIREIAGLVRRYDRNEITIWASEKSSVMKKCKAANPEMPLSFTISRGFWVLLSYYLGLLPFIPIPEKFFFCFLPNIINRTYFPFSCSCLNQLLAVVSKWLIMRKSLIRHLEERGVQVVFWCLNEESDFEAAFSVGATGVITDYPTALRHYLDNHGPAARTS", "UniProt Q9NXC2": "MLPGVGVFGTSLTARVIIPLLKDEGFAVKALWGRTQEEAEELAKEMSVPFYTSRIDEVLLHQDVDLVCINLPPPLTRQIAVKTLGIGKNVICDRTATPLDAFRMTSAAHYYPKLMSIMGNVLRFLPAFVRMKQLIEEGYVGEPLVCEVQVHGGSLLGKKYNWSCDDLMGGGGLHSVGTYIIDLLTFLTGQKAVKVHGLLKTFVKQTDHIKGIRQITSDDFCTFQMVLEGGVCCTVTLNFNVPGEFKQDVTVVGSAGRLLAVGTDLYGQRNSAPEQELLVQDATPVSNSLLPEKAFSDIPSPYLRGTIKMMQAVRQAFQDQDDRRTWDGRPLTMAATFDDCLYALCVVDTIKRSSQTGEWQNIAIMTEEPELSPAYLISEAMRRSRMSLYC", "UniProt Q6P4F1": "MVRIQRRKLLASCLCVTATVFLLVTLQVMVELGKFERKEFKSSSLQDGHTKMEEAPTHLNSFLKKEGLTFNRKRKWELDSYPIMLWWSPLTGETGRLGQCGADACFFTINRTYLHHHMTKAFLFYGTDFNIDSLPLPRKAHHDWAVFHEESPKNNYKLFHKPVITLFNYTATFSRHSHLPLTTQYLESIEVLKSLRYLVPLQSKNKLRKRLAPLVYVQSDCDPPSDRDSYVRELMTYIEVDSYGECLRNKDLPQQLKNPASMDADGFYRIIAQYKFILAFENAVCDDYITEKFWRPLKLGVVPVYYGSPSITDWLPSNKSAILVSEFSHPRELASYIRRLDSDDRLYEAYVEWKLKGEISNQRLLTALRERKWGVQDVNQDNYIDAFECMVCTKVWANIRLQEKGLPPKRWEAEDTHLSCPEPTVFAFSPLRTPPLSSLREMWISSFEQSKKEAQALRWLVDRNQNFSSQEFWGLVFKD", "UniProt Q9H840": "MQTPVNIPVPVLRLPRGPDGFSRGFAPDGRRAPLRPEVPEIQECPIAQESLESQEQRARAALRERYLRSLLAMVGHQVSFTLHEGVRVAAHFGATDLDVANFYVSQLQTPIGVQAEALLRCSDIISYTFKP", "UniProt Q96QD9": "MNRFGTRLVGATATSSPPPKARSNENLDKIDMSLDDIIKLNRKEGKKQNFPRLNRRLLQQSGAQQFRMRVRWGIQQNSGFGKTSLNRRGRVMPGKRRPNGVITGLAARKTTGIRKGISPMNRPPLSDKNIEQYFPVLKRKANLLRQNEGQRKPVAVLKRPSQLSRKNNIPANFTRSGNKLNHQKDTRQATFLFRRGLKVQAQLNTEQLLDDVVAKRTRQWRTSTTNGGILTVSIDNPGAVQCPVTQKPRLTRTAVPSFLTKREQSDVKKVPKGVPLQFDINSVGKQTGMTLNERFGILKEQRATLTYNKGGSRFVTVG", "UniProt Q9NWZ8": "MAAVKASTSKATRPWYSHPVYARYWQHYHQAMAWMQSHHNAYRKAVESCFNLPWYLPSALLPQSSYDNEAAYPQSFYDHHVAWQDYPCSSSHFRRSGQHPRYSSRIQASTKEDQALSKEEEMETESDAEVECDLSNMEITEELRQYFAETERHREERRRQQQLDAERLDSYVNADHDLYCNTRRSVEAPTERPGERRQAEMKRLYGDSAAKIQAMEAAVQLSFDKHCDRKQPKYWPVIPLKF", "UniProt Q9BZ67": "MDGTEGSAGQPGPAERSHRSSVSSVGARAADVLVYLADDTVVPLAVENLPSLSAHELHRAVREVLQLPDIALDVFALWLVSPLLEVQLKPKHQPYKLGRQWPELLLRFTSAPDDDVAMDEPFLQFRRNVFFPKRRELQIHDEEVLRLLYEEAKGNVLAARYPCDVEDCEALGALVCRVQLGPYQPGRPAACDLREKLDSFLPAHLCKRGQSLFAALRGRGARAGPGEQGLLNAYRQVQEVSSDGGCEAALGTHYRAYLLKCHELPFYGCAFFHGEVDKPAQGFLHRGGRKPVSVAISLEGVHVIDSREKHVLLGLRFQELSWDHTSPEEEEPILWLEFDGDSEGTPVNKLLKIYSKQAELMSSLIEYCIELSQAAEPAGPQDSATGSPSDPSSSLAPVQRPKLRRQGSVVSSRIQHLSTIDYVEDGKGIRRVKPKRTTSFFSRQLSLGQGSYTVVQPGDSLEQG", "UniProt Q9BUM1": "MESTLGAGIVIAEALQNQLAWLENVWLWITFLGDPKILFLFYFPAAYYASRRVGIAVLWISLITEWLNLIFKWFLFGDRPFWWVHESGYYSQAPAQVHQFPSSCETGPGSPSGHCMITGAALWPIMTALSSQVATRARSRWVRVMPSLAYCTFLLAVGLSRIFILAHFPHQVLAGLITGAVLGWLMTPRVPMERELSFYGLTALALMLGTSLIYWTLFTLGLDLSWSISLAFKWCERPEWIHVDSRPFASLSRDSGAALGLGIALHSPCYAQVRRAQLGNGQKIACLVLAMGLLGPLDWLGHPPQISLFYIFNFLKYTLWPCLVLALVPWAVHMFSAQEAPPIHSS", "UniProt Q6ZNW5": "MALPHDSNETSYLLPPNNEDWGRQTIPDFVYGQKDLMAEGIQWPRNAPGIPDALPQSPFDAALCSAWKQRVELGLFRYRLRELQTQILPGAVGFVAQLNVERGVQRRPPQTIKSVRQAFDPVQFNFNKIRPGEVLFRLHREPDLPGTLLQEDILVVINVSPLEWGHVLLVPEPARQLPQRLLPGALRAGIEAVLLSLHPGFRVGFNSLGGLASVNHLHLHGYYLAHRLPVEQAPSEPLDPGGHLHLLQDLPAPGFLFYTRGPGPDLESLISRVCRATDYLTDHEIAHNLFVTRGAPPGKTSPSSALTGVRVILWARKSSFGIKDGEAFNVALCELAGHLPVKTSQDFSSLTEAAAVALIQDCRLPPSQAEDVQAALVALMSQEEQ"}, "source": "the supplement of paper PMC10849652", "note": "The other results are listed elsewhere or left out."}
{"compound": "Cc1ccc(C(=O)N(CCCN)[C@@H](c2nc3cc(Cl)ccc3c(=O)n2Cc2ccccc2)C(C)C)cc1 [ispinesib]", "assay": "log2 fold change, soluble protein after heating vs DMSO (PISA); higher = thermal stabilisation; K562 cells, 10 uM, 30 min; active = over 0.2 and 3.5 SD of the protein, either way, in both replicates (recomputed)", "summary_of_the_method": "(§1)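 For each measurement, 10 μM compound was applied for 30 min to K562 cells at 2×10^6 cells/mL. Aliquots were heated for 3 min across 48°C-58°C, pooled, and extracted in PBS with 0.5% NP-40 at 4°C; the supernatant after 21,000xg for 90 min was soluble protein. This was quantified by TMTpro 16plex LC-MS/MS with channel sums equalised, and thermal stability was reported relative to control samples from duplicates, on a log2 fold-change scale.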"}
{"target": "GAL (UniProt P22466)", "log2 fold change": "inactive: 0.008"}
{"target": "GDF15 (UniProt Q99988)", "log2 fold change": "inactive: 0.206"}
{"target": "GDI2 (UniProt Q5SX86)", "log2 fold change": "inactive: -0.23"}
{"target": "FRYL isoform 2 (UniProt O94915)", "log2 fold change": "inactive: -0.064"}
{"target": "FRAT1 (UniProt Q92837)", "log2 fold change": "inactive: 0.068"}
{"target": "GGACT (UniProt Q9BVM4)", "log2 fold change": "inactive: 0.076"}
{"target": "GCC1 (UniProt Q96CN9)", "log2 fold change": "inactive: -0.24"}
{"target": "FRMPD3 (UniProt Q5JV73)", "log2 fold change": "inactive: -0.132"}
{"compound": "Cc1ccc(NC(=O)c2ccc(CN3CC[C@H](N(C)C)C3)c(C(F)(F)F)c2)cc1Nc1nccc(-c2cncnc2)n1 [bafetinib]", "assay": "log2 fold change, soluble protein after heating vs DMSO (PISA); higher = thermal stabilisation; K562 cells, 10 uM, 30 min; active = over 0.2 and 3.5 SD of the protein, either way, in both replicates (recomputed)", "summary_of_the_method": "as §1"}
{"target": "GAL (UniProt P22466)", "log2 fold change": "inactive: 0.194"}
{"target": "GDF15 (UniProt Q99988)", "log2 fold change": "inactive: 0.098"}
{"target": "GDI2 (UniProt Q5SX86)", "log2 fold change": "inactive: 0.068"}
{"target": "GFM2 (UniProt Q969S9)", "log2 fold change": "inactive: -0.009"}
{"target": "GABPB1 isoform 3 (UniProt Q06547)", "log2 fold change": "inactive: -0.207"}
{"target": "GDPD5 (UniProt Q8WTR4)", "log2 fold change": "inactive: -0.09"}
{"target": "FRMPD3 (UniProt Q5JV73)", "log2 fold change": "inactive: -0.682"}
{"compound": "Cc1cccc(CC(=O)N2CCc3c2ccc(-c2cn(C)c4ncnc(N)c24)c3F)n1", "assay": "log2 fold change, soluble protein after heating vs DMSO (PISA); higher = thermal stabilisation; K562 cells, 10 uM, 30 min; active = over 0.2 and 3.5 SD of the protein, either way, in both replicates (recomputed)", "summary_of_the_method": "as §1"}
{"target": "GDPD3 (UniProt Q7L5L3)", "log2 fold change": "inactive: 0.063"}
{"target": "GFOD1 (UniProt Q9NXC2)", "log2 fold change": "inactive: -0.059"}
{"target": "FUT10 isoform 2 (UniProt Q6P4F1)", "log2 fold change": "inactive: 0.022"}
{"target": "GEMIN7 (UniProt Q9H840)", "log2 fold change": "inactive: -0.119"}
{"target": "FYTTD1 (UniProt Q96QD9)", "log2 fold change": "inactive: 0.056"}
{"target": "GALNT3 (UniProt Q14435)", "log2 fold change": "inactive: -0.235"}
{"target": "GCC1 (UniProt Q96CN9)", "log2 fold change": "inactive: -0.109"}
{"target": "GFAP isoform 2 (UniProt P14136)", "log2 fold change": "inactive: -0.289"}
{"target": "GABPB1 isoform 3 (UniProt Q06547)", "log2 fold change": "inactive: 0.056"}
{"compound": "Cc1cn(-c2cc(NC(=O)c3ccc(C)c(Nc4nccc(-c5cccnc5)n4)c3)cc(C(F)(F)F)c2)cn1 [nilotinib]", "assay": "log2 fold change, soluble protein after heating vs DMSO (PISA); higher = thermal stabilisation; K562 cells, 10 uM, 30 min; active = over 0.2 and 3.5 SD of the protein, either way, in both replicates (recomputed)", "summary_of_the_method": "as §1"}
{"target": "GEMIN8 (UniProt Q9NWZ8)", "log2 fold change": "inactive: -0.088"}
{"target": "GDF15 (UniProt Q99988)", "log2 fold change": "inactive: 0.16"}
{"target": "FRMD8 (UniProt Q9BZ67)", "log2 fold change": "inactive: -0.058"}
{"target": "G6PC3 (UniProt Q9BUM1)", "log2 fold change": "inactive: 0"}
{"target": "GAGE1 (UniProt Q13065)", "log2 fold change": "inactive: 0.076"}
{"target": "GDPGP1 (UniProt Q6ZNW5)", "log2 fold change": "inactive: 0.097"}
{"target": "GCC1 (UniProt Q96CN9)", "log2 fold change": "inactive: -0.021"}
{"target": "GANC (UniProt Q8TET4)", "log2 fold change": "inactive: 0.173"}
